These are yes or no findings as the source states them, for the method shown. In cells and extracts the contact can be indirect. Some entries that bind do so weakly or less than the wild type. Where a sequence is shown, tags or fusion partners need not be part of it.
Key:
[1] = target: T1, mouse EDEM2 fused to an hemagglutinin (HA) tag (mouse) (UniProt Q8BJT9); test: co-IP
T1 sequence: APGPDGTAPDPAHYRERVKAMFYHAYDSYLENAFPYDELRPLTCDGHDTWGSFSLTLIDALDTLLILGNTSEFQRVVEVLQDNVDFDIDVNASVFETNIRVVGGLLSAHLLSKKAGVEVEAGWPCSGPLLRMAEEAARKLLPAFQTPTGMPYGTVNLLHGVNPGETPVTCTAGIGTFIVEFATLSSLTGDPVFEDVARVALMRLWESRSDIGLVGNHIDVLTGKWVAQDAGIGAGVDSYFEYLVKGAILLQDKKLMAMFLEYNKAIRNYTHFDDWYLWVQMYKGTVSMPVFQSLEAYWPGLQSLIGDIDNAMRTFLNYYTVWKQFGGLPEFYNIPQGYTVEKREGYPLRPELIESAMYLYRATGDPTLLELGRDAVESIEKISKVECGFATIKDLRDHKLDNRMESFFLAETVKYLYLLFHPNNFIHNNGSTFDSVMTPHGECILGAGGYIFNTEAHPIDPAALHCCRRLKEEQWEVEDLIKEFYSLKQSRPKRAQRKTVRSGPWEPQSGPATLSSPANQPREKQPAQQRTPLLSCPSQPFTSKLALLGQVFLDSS

[2] = target: T2, mouse EDEM1 fused to an hemagglutinin (HA) tag (mouse) (UniProt Q925U4); test: co-IP
T2 sequence: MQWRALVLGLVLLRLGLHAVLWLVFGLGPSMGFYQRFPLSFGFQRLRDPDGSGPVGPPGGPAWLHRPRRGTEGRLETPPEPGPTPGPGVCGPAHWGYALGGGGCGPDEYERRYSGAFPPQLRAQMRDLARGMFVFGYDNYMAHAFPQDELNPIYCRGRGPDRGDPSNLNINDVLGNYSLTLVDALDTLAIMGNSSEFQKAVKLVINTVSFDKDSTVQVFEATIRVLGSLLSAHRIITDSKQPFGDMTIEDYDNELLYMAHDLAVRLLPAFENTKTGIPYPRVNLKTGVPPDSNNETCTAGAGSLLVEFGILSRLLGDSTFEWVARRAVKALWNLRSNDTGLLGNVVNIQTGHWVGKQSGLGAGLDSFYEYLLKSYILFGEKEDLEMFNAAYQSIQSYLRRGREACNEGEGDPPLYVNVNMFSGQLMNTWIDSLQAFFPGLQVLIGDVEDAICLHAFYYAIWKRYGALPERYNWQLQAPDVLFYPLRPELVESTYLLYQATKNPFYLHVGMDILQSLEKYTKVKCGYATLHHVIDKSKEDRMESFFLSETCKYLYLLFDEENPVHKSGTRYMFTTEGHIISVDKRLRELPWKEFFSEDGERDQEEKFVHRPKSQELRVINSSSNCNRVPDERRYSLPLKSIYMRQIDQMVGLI

binding [1]: binds
binding [2]: binds
B1: BACE457, the pancreatic isoform of human β-secretase (protein, UniProt P56817-3 46-457)
chain: ETDEEPEEPGRRGSFVEMVDNLRGKSGQGYYVEMTVGSPPQTLNILVDTGSSNFAVGAAPHPFLHRYYQRQLSSTYRDLRKGVYVPYTQGKWEGELGTDLPDDSLEPFFDSLVKQTHVPNLFSLQLCGAGFPLNQSEVLASVGGSMIIGGIDHSLYTGSLWYTPIRREWYYEVIIVRVEINGQDLKMDCKEYNYDKSIVDSGTTNLRLPKKVFEAAVKSIKAASSTEKFPDGFWLGEQLVCWQAGTTPWNIFPVISLYLMGEVTNQSFRITILPQQYLRPVEDVATSQDDCYKFAISQSSTGTVMGAVIMEGFYVVFDRARKRIGFAVSACHVHDEFRTAAVEGPFVTLDMEDCGYNIPQTDESTLMTIAYVMAAICALFMLPLCLMVCQWRCLRCLRQQHDDFADDISLLK

Source: publication PMC4340280
